Series [1] has as its target von Willebrand Factor (VWF) (Homo sapiens) (UniProt P04275). Put plainly: SELEX. Conditions: 2'-F pyrimidines, 2'-OH purines (printed 5-hydroxyl); isolated by binding and inhibiting VWF; purified native protein.
The target of another series is T1, Coagulation Factor VII (UniProt P08709).
T1 sequence (looked up, limits assumed): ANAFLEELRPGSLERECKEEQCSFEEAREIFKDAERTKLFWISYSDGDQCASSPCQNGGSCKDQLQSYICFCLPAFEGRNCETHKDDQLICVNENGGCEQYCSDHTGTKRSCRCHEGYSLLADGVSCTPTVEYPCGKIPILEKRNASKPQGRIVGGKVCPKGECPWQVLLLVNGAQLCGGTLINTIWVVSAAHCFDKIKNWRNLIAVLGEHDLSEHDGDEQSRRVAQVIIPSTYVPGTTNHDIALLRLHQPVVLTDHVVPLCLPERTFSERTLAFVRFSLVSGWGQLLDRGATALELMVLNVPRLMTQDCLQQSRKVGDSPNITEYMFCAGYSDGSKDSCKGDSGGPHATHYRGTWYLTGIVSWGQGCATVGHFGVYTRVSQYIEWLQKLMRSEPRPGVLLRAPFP
The series can be described thus: binding assay. Conditions: can also bind Factor VII; purified native protein.

For series [2], the target named is Coagulation Factor II (prothrombin) (UniProt P00734). The series can be described thus: binding assay. To be noted: binds Factor II minimally; purified native protein.

The exact form of at least one protein or probe is not confirmed. For some assays here: A weaker result is weaker than the reference pair of the same experiment. For some assays here: Where a protein sequence is shown, tags need not be part of it.

Regarding “ACCGCGCUCUCCUGCUUAAGCAGCUAUCAAAUAGCCCACU [Q_W3-6]”, in series [1], the selection result is on record as “selected”. For “CGCGACAGAUCGUAUAAUAGUCAACGCUCUAACCAAUCAC [7K-84]”, the binding result with Coagulation Factor VII is on record as “binds”. For the sequence “UGGACGAACUGCCCUCAGCUACUUUCAUGUUGCUGACGCA [VWF R9.14]”, the selection result in series [1] is given as “selected”. “CGAGCCGGACUUCAGCCAGUGAUAUGAUGCGACACACUGC [9D-11]”: the binding result in series [2] is given as “binds more weakly”. With “GCCAAGGACCGAGGCCCCAACUGACAGUUUCAACAAGCG [7K-58]”, in the series with Coagulation Factor VII, the binding result is “binds”. As for “AUCGCGCUCUCCUGCUUAAGCAGCUAUCAAAUAGCCCACU [FM10]”, in series [1], the selection result was “selected”. The same measure, in the same setting: the result for “AUCGCGCUCUCCUGCUUAAGCAGCUAUCAAAAAGCCCACU [Q-W1-9]” reads “selected”; that for “UAUACCACAGCCUGAGAUUAACCACCAACCCAGGACU [VWF R9.2]”, “selected”.

The values are drawn from US20090264508.
